Drawing on PMC11024343, this text covers binding for one molecule.

These are yes or no findings as the source states them, for the method shown. Binding seen in cells or lysates may run through a third protein. These calls come from enrichment with a bait or labelling near it, and not all partners need be listed.

The target of this experiment is HA-CagF (H. pylori). Briefly: affinity purification with mass spectrometry; HA-CagF captured from H. pylori lysate (RIPA buffer) with anti-HA antibodies on protein G Dynabeads, eluted with HA peptide; LC-MS/MS of the preparations; WT (two experiments), ∆cagT and ∆cagM strains.

B1: CagY (protein, UniProt D3XNT5 1-77)
chain: MGNANEVRDKFIQNYATSLKDSNDPQDFLRRVQELRINMQKNFISFDAYYNYLNNLVLASYTSLQTRKDFCRKHDQK
For the molecule B1, the binding result was “binds”.
